Earlier results on one compound are cited in patent US11794009B2, “Devices, systems and methods for treating urological and gastrointestinal disorders by electrical stimulation of the foot” (priority 2014, dated 2023).

This series concerns irritation induced bladder overactivity. The settings on record: combined with foot stimulation, cats; cited from earlier work.

Each structure is given as a SMILES string.

Consider `COc1cccc(C2(O)CCCCC2CN(C)C)c1` (stereo not shown) [Tramadol, tramadol], for which the “effect of tramadol on foot inhibition” value is reported as “synergistically enhance foot inhibition”.
